# The list shows a part of the results.
# B1: AT3G09350(27) (Arabidopsis thaliana), Q84J81 (protein)
# chain: MAKDGPNWDGLLKWSLSHADGTRPTRQLSEEDRKWFMEAMQSQTVDVVKRMKEITLVMQTPEQVLVEHGVTPEDIQDLLDELQEHVESIDMANDLHSIGGLVPLLSFLKNSHANIRAKAADVVSTIVQNNPRSQELVMETNALESLLSNFTSDTDIHARTQALGAISSLIRHNKPGVTAFKLANGYAGLRDALASDSVRFQRKALNLLQYLLQEDDSDRSIATGLGFPRVMMHLASSDDAEIREAALRGLLELSREKNDGSSSIDKSDEKLRQLLEERIKGITLMSQEDLETVKEERQLVDLLWSICYNEPSSLREKGLVVLPGEDALPPDVASKLFEPPLRASAANRNATEKKDEPMKLLGP
# Tests used:
# Test in all cases: glycan array binding signal (z-score within array); higher = stronger binding
# Settings in all cases: glycan notation: IUPAC condensed, linker removed
# [1] = target: GlcNAc(a1-6)Gal(b1-4)GlcNAc
# Summary of the method: (§1)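 Glycan array data were curated from 3228 arrays in the Consortium for Functional Glycomics database and kept only where the protein sequence was available. Glycan names were converted to IUPAC-condensed notation, and columns mapping to the same glycan were averaged. The binding signal is a within-array Z-score, averaged across arrays of the same protein sequence at different concentrations or buffers and across linkers. Negative Z-scores can be read as non-binding.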
# [2] = target: GlcNAc(b1-2)Gal(b1-3)GalNAc
# Summary of the method: as §1
# [3] = target: GlcNAc(b1-2)Man(a1-3)[GlcNAc(b1-2)Man(a1-6)]Man(b1-4)GlcNAc(b1-4)GlcNAc
# Summary of the method: as §1
# [4] = target: GlcNAc(b1-2)Man(a1-3)[GlcNAc(b1-2)Man(a1-6)]Man(b1-4)GlcNAc(b1-4)[Fuc(a1-6)]GlcNAc
# Summary of the method: as §1
# [5] = target: GlcNAc(b1-2)Man(a1-3)[GlcNAc(b1-4)][GlcNAc(b1-2)Man(a1-6)]Man(b1-4)GlcNAc(b1-4)GlcNAc
# Summary of the method: as §1
# [6] = target: GlcNAc(b1-2)Man(a1-3)[GlcNAc(b1-4)][GlcNAc(b1-2)Man(a1-6)]Man(b1-4)GlcNAc(b1-4)[Fuc(a1-6)]GlcNAc
# Summary of the method: as §1
# [7] = target: GlcNAc(b1-2)[GlcNAc(b1-4)]Man(a1-3)[GlcNAc(b1-2)Man(a1-6)]Man(b1-4)GlcNAc(b1-4)GlcNAc
# Summary of the method: as §1
# [8] = target: GlcNAc(b1-2)[GlcNAc(b1-4)]Man(a1-3)[GlcNAc(b1-4)][GlcNAc(b1-2)Man(a1-6)]Man(b1-4)GlcNAc(b1-4)GlcNAc
# Summary of the method: as §1
# [9] = target: GlcNAc(b1-2)[GlcNAc(b1-4)]Man(a1-3)[GlcNAc(b1-4)][GlcNAc(b1-2)[GlcNAc(b1-6)]Man(a1-6)]Man(b1-4)GlcNAc(b1-4)GlcNAc
# Summary of the method: as §1
# [10] = target: GlcNAc(b1-2)[GlcNAc(b1-4)]Man(a1-3)[GlcNAc(b1-4)][GlcNAc(b1-2)[GlcNAc(b1-6)]Man(a1-6)]Man(b1-4)GlcNAc(b1-4)[Fuc(a1-6)]GlcNAc
# Summary of the method: as §1
# [11] = target: GlcNAc(b1-2)[GlcNAc(b1-6)]Man(a1-6)[GlcNAc(b1-2)Man(a1-3)]Man(b1-4)GlcNAc(b1-4)GlcNAc
# Summary of the method: as §1
# [12] = target: GlcNAc(b1-2)[GlcNAc(b1-6)]Man(a1-6)[GlcNAc(b1-2)Man(a1-3)]Man(b1-4)GlcNAc(b1-4)[Fuc(a1-6)]GlcNAc
# Summary of the method: as §1
# [13] = target: GlcNAc(b1-2)[GlcNAc(b1-6)]Man(a1-6)[GlcNAc(b1-4)][GlcNAc(b1-2)Man(a1-3)]Man(b1-4)GlcNAc(b1-4)GlcNAc
# Summary of the method: as §1
# GlcNAc(b1-3)Fuc = target: GlcNAc(b1-3)Fuc
# Summary of the method: as §1
# GlcNAc(b1-3)Gal = target: GlcNAc(b1-3)Gal
# Summary of the method: as §1
# [14] = target: GlcNAc(b1-3)Gal(b1-3)GalNAc
# Summary of the method: as §1
# GlcNAc(b1-3)Gal(b1-4)Glc = target: GlcNAc(b1-3)Gal(b1-4)Glc
# Summary of the method: as §1
# [15] = target: GlcNAc(b1-3)Gal(b1-4)GlcNAc
# Summary of the method: as §1
# [16] = target: GlcNAc(b1-3)Gal(b1-4)GlcNAc(b1-2)Man(a1-3)[GlcNAc(b1-3)Gal(b1-4)GlcNAc(b1-2)Man(a1-6)]Man(b1-4)GlcNAc(b1-4)GlcNAc
# Summary of the method: as §1
# [17] = target: GlcNAc(b1-3)Gal(b1-4)GlcNAc(b1-2)Man(a1-3)[GlcNAc(b1-3)Gal(b1-4)GlcNAc(b1-2)Man(a1-6)]Man(b1-4)GlcNAc(b1-4)[Fuc(a1-6)]GlcNAc
# Summary of the method: as §1
# [18] = target: GlcNAc(b1-3)Gal(b1-4)GlcNAc(b1-2)[GlcNAc(b1-3)Gal(b1-4)GlcNAc(b1-6)]Man(a1-6)[GlcNAc(b1-3)Gal(b1-4)GlcNAc(b1-2)Man(a1-3)]Man(b1-4)GlcNAc(b1-4)GlcNAc
# Summary of the method: as §1
# [19] = target: GlcNAc(b1-3)Gal(b1-4)GlcNAc(b1-3)Gal(b1-4)GlcNAc
# Summary of the method: as §1
binder,measurement,setting,value
B1,glycan array binding signal (z-score),[1],-0.037
same,glycan array binding signal (z-score),[2],-0.397
same,glycan array binding signal (z-score),[3],-0.665
same,glycan array binding signal (z-score),[4],1.18
same,glycan array binding signal (z-score),[5],-0.11
same,glycan array binding signal (z-score),[6],-0.83
same,glycan array binding signal (z-score),[7],0.595
same,glycan array binding signal (z-score),[8],-0.246
same,glycan array binding signal (z-score),[9],0.405
same,glycan array binding signal (z-score),[10],-0.312
same,glycan array binding signal (z-score),[11],-0.892
same,glycan array binding signal (z-score),[12],-0.781
same,glycan array binding signal (z-score),[13],-0.33
same,glycan array binding signal (z-score),GlcNAc(b1-3)Fuc,-0.889
same,glycan array binding signal (z-score),GlcNAc(b1-3)Gal,-0.171
same,glycan array binding signal (z-score),[14],-0.393
same,glycan array binding signal (z-score),GlcNAc(b1-3)Gal(b1-4)Glc,-1.21
same,glycan array binding signal (z-score),[15],-0.201
same,glycan array binding signal (z-score),[16],0.133
same,glycan array binding signal (z-score),[17],0.571
same,glycan array binding signal (z-score),[18],0.001
same,glycan array binding signal (z-score),[19],-0.546

# Fetched one by one from the entries so far, 2 records:
binder,measurement,setting,value
B1,glycan array binding signal (z-score),[2],-0.397
same,glycan array binding signal (z-score),[13],-0.33
